Earlier results, collected in patent publication US7094946B1, “Animal model for allergic disorders” (Astellas Pharma Inc., priority 2000, dated 2006).
At least one structure is not confirmed: it was looked up by name or label, or the drawing left a doubt.

Legend:
T cells = details: cited from earlier work
mast cells = details: cited from earlier work

C=CC[C@@H]1/C=C(\C)C[C@H](C)C[C@H](OC)[C@H]2O[C@@](O)(C(=O)C(=O)N3CCCC[C@H]3C(=O)O[C@H](/C(C)=C/[C@@H]3CC[C@@H](O)[C@H](OC)C3)[C@H](C)[C@@H](O)CC1=O)[C@H](C)C[C@@H]2OC [FK506]
IL-2 production (T cells; T cells): suppresses
proliferation of T cells (T cells): suppresses
degranulation of mast cells (mast cells): suppress
